From patent CN110734897A
No constants are given. Whether binding was seen depends on the method and setting. Some results given as binding are weak or reduced against the parent protein; the word gives no strength.

Columns and labels:
[1] = molecular target: 食蟹猴SIRPα (XP_015313155 …: tyrosine-protein phosphatase non-receptor type substrate 1 isoform X2 [Macaca fascicularis])，过表达于CHO-K1稳定细胞株 (Macaca fascicularis); assay: flow cytometry on CHO-K1 cells overexpressing cynomolgus SIRPα, purified antibody
[2] = molecular target: 食蟹猴SIRPα (XP_015313155 …: tyrosine-protein phosphatase non-receptor type substrate 1 isoform X2 [Macaca fascicularis])，过表达于CHO-K1稳定细胞株 (Macaca fascicularis); assay: flow cytometry screen on CHO-K1 cells overexpressing cynomolgus SIRPα

B1: 杂交瘤细胞株12G6产生的抗人SIRPα单克隆抗体 (antibody, IgG2b, V domains shown)
VH: QIQLVQSGPELKKPGETVKISCKASGYTFTNYGMHWVKQAPGKDLKWMGWINTYTGEPTNADDFKGRFAFSLETSDRTAFLQINNLKNEDTATYFCARGHHYGNYAWFAYWGQGTLVTVSA
VL: DIVMTQSHKFMSTSVGDRVSITCKASQDVSLAVAWYQQKPGQSPKVLIYWASTRHTGVPDRFAGSGSGTDYTLTISSVQAEDLALYYCQQHYSTPWTFGGGTKLEIN
binding [1]: binds
binding [2]: binds
